Experimental findings from paper PMC5224502 are described below.

Chains of the proteins cited; added tags and fusions are not shown. Lines headed by an entry give the natural chain unless they say otherwise; changes in a name come on top.
UniProt F4I2U5: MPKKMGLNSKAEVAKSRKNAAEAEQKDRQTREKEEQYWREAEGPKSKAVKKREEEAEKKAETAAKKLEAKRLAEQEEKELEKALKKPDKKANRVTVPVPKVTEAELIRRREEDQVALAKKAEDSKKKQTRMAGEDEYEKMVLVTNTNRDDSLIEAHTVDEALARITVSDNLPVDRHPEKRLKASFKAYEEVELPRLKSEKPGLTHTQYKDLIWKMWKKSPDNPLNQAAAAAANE
UniProt O94389: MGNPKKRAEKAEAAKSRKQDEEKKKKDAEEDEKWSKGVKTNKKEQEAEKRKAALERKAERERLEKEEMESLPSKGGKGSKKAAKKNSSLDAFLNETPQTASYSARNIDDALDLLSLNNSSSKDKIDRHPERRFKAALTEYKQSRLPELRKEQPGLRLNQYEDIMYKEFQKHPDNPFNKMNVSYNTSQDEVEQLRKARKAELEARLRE
UniProt P05412: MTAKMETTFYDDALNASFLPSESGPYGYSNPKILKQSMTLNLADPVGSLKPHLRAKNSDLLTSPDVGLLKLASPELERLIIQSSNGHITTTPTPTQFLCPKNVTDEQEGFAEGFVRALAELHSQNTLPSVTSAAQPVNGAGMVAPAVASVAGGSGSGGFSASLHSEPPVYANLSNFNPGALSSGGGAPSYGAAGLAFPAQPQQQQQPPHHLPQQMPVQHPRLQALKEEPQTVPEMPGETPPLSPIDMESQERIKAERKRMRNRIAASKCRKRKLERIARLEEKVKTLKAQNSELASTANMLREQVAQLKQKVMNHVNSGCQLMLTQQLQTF

The target of test [1] is T1, HA-Pap1 (S. pombe) (UniProt Q01663).
T1 sequence: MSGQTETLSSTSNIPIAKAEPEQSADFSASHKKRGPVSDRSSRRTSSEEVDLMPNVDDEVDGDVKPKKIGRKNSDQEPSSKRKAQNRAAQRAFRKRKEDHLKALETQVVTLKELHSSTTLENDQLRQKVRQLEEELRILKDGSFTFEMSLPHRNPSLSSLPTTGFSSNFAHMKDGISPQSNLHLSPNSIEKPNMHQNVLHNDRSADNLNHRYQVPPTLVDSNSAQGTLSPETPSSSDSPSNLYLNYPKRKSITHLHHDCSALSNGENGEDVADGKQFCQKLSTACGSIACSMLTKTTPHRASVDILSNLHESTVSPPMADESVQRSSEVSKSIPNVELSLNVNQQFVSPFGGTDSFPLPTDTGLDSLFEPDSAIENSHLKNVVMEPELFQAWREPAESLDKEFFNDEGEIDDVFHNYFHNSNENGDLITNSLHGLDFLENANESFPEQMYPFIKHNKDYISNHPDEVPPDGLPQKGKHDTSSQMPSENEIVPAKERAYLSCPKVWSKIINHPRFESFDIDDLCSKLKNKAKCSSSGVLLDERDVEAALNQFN
In words: co-IP; extracts of S. pombe knock-in strain producing HA-Pap1 and FLAG-Oxs1, cells untreated; immunoprecipitated with anti-HA, detected with anti-FLAG.

For test [2], the target named is T1, HA-Pap1 (S. pombe). In words: condition: only cells treated with H2O2 (0.2 mM, 5 min) instead of diamide or Cd; co-IP; extracts of S. pombe knock-in strain producing HA-Pap1 and FLAG-Oxs1, cells treated with H2O2 (0.2 mM, 5 min); immunoprecipitated with anti-HA, detected with anti-FLAG.
Test [3] addresses T1, HA-Pap1 (S. pombe). The test can be described thus: co-IP; extracts of S. pombe knock-in strain producing HA-Pap1 and FLAG-Oxs1, cells treated with diamide (1 mM, 3 h) or Cd (0.1 mM, 3 h); immunoprecipitated with anti-HA, detected with anti-FLAG.
The target in test [4] is GST-AtOxs1 (Arabidopsis) (UniProt F4I2U5). In words: pull-down; GST fusion from E. coli lysate bound to MagneGST beads (4°C, 4 h) and washed four times; beads incubated overnight at 4°C with E. coli lysate expressing the His fusion; wash buffer 25 mM Tris-HCl pH 7.2, 150 mM NaCl, 1 mM EDTA, 1 mM EGTA, 1% Triton X-100, 0.5% Nonidet P-40, 1 mM DTT; western blot with anti-His; only the target purified. On the technique in general: In western blotting, separated proteins are transferred to a membrane and probed.

The target of test [5] is GST-Oxs1 (S. pombe) (UniProt O94389). The description is as above.
The target in test [6] is T2, GST-Pap1 (S. pombe) (UniProt Q01663).
T2 sequence: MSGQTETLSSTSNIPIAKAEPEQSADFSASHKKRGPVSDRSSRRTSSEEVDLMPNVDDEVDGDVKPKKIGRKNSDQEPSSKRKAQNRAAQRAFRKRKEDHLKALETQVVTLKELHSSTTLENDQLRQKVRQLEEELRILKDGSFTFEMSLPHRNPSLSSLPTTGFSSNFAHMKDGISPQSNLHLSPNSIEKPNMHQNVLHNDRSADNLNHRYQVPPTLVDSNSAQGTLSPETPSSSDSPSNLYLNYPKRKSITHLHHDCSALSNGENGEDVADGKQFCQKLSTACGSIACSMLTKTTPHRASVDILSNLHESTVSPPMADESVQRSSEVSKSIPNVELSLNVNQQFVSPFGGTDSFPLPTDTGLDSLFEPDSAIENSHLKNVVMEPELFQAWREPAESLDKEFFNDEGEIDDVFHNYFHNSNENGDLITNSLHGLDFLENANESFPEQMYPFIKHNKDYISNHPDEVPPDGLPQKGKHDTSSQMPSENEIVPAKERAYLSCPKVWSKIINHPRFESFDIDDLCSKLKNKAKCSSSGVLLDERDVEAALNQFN
The description is as above.

Results are given in words; binding and its absence hold for the method and conditions named. In cells and extracts the contact can be indirect. For some of these results: Binding calls can cover weak binding; strength is not graded here. Where a sequence is shown, tags or fusion partners need not be part of it.

For FLAG-Oxs1 (S. pombe), the figures for the binding entry in test [1], in test [2] and in test [3] were “no binding (only cells untreated (no diamide or Cd))”, “no binding” and “binds”, respectively.
With His-HscJun (from UniProt P05412 1-331), the binding entry in test [4] and in test [5] was “binds” throughout.
As for His-Oxs1 (from UniProt O94389), the binding entry in test [6] is “binds”.

B1: His-Pap1 (protein, UniProt Q01663 1-552)
chain: MSGQTETLSSTSNIPIAKAEPEQSADFSASHKKRGPVSDRSSRRTSSEEVDLMPNVDDEVDGDVKPKKIGRKNSDQEPSSKRKAQNRAAQRAFRKRKEDHLKALETQVVTLKELHSSTTLENDQLRQKVRQLEEELRILKDGSFTFEMSLPHRNPSLSSLPTTGFSSNFAHMKDGISPQSNLHLSPNSIEKPNMHQNVLHNDRSADNLNHRYQVPPTLVDSNSAQGTLSPETPSSSDSPSNLYLNYPKRKSITHLHHDCSALSNGENGEDVADGKQFCQKLSTACGSIACSMLTKTTPHRASVDILSNLHESTVSPPMADESVQRSSEVSKSIPNVELSLNVNQQFVSPFGGTDSFPLPTDTGLDSLFEPDSAIENSHLKNVVMEPELFQAWREPAESLDKEFFNDEGEIDDVFHNYFHNSNENGDLITNSLHGLDFLENANESFPEQMYPFIKHNKDYISNHPDEVPPDGLPQKGKHDTSSQMPSENEIVPAKERAYLSCPKVWSKIINHPRFESFDIDDLCSKLKNKAKCSSSGVLLDERDVEAALNQFN
For B1, the binding entry in test [4] and in test [5] was “binds” throughout.

B2: His-AtbZIP10 (protein, UniProt O22763 1-411)
chain: MNSIFSIDDFSDPFWETPPIPLNPDSSKPVTADEVSQSQPEWTFEMFLEEISSSAVSSEPLGNNNNAIVGVSSAQSLPSVSGQNDFEDDSRFRDRDSGNLDCAAPMTTKTVIVDSDDYRRVLKNKLETECATVVSLRVGSVKPEDSTSSPETQLQPVQSSPLTQGELGVTSSLPAEVKKTGVSMKQVTSGSSREYSDDEDLDEENETTGSLKPEDVKKSRRMLSNRESARRSRRRKQEQTSDLETQVNDLKGEHSSLLKQLSNMNHKYDEAAVGNRILKADIETLRAKVKMAEETVKRVTGMNPMLLGRSSGHNNNNRMPITGNNRMDSSSIIPAYQPHSNLNHMSNQNIGIPTILPPRLGNNFAAPPSQTSSPLQRIRNGQNHHVTPSANPYGWNTEPQNDSAWPKKCVD
B2: the binding entry in test [4] and in test [5] was “binds” throughout.
